Reference: publication PMC9344820
Results are given in words; binding and its absence hold for the method and conditions named. Binding seen in cells or lysates may run through a third protein. Some binding calls cover weakened binding; strength is not graded here. Sequences can lack the tags named with a protein.

Biological target: T1, PARD3-p.R133* (nonsense variant c.397C>T), Flag-tagged (human) (UniProt Q8TEW0)
T1 sequence: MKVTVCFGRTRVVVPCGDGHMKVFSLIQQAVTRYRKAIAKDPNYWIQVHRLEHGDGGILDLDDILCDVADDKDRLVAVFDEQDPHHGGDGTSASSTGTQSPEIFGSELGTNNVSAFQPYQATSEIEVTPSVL
Experiment: co-IP; anti-Flag immunoprecipitation from NP-40 lysates of HEK-293T cells stably expressing the Flag-tagged truncated PARD3; protein A/G beads overnight at 4°C; endogenous PARD3 detected with an antibody against a C-terminal immunogen

binding: binds
Substance: endogenous full-length PARD3 (Par-3 Family Cell Polarity Regulator) (from UniProt Q8TEW0-1 1-1356)
